These are yes or no findings as the source states them, for the method shown. In cells and extracts the contact can be indirect. A result given as binding can be weak or reduced; the word gives no strength. Sequences can lack the tags named with a protein.
Target: T1, GST-mouse Popdc1 (aa 114 to 357) fusion protein (mouse) (UniProt Q9ES83)
T1 sequence: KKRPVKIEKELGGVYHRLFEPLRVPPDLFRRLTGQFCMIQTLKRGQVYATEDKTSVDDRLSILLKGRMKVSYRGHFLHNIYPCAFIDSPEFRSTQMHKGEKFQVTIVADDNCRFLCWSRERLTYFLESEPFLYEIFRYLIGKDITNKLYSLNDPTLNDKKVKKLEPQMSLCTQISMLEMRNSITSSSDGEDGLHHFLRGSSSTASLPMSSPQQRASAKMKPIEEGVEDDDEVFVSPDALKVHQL
Assay: pull-down; GST-mouse Popdc1 on glutathione beads, incubated with RIPA extract of adult rat heart ventricle; western blot with mAb against XIRP1; control: beads alone; only the target purified

binding: binds
Substance: XIRP1 (rat, endogenous in heart ventricle)

Source: article PMC7709239
